# Data reported in US20130131008A1, “LIPOPHILIC MONOPHOSPHORYLATED DERIVATIVES AND NANOPARTICLES” (BOARD OF REGENTS, THE UNIVERSITY OF TEXAS SYSTEM, priority 2011, published 2013).
# Some results were stated once for a whole list of compounds, not compound by compound. For at least one compound, name, drawing or mass did not settle the structure.
# Test system: CCRF-CEM cells
# Experiment: In vitro cytotoxicity assay (MTT), 72 h
# Format: cell-based, human
# Conditions: gemcitabine HCl IC50 2.9 nM as reference
# From the text: Human leukemia cell line CCRF-CEM (CCL-119), human pancreatic cancer cell lines PANC-1 (CRL-1469), MIA PaCa-2 (CRL-1420), and BxPC-3 (CRL-1687), human breast adenocarcinoma cell line MCF-7 (HTB-22), and mouse lung cancer cell line TC-1 (CRL-2785) were from the American Type Culture Collection (Rockville, Md.). CCRF-CEM-AraC-8C cells (hENT1 deficient) and CCRF-CEM/dCK^−/− cells (dCK deficient) were kindly provided by Dr. Buddy Ullmann (Oregon Health & Science University, Portland, Oreg.) and Dr. Margaret Black (Washington State University, Pullman, Wash.), respectively. L1210 wt and L1210 10K were kindly supplied by Dr. Lars Petter Jordheim (Université Claude Bernard Lyon I, Lyon, France). TC-1-GR cells were previously developed in our lab. CCRF-CEM, CCRF-CEM-AraC-8C, CCRF-CEM/dCK^−/−, L1210 wt, L1210 10K, TC-1, and TC-1-GR cells were cultured in RPMI 1640 medium. […]
# Cells (5,000/well) were seeded in 96-well plates. […] The number of viable cells after the incubation was determined using an MTT assay. […] Absorbance was measured using a BioTek Synergy™ HT Multi-Mode Microplate Reader (BioTek Instruments, Winooski, Vt.) at 570 nm and 630 nm. The fraction of affected (dead) cells (Fa) and the fraction of unaffected (live) cells (Fu) at every dose were calculated, and the Log(Fa/Fu) values were plotted against the Log(concentration of gemcitabine). […]
smiles,measurement,value
"CCCCCCCCCCCCCCCCCC(=O)Nc1ccn([C@@H]2OC(CO)C(O)C2(F)F)c(=O)n1 (stereo partly shown) [GemC18, 4-N-stearoyl gemcitabine]",Fold by which IC50 in CCRF-CEM is greater than that of gemcitabine HCl,6-77 fold
